{"source": "patent US20090105206A1", "about": "“Copper Melphalan And Copper Tegafur As Anti-Tumor Agents” (priority 2004, published 2009)", "note": "For at least one compound, name, drawing or mass did not settle the structure."}
{"compound": "O=c1[n-]c(=O)n(C2CCCO2)cc1F.O=c1[n-]c(=O)n(C2CCCO2)cc1F.[Cu+2]", "note": "(stereo not shown) [Cu(tegafur)2]", "values": [{"measurement": "anti-tumor effectiveness (compared with Cu(melphalan)2)", "value": "Comparable effectiveness"}]}
